Measurements published in paper PMC11091888, “Evaluation of Fusobacterium nucleatum Enoyl-ACP Reductase (FabK) as a Narrow-Spectrum Drug Target” (ACS Infectious Diseases, 2024).
Values after ≈ are worked out from the molar mass of the structure shown.

Test: Cytotoxicity against HCT116 cells (resazurin viability)
Assay type: cell-based
Conditions: human, maximum tested concentration 100 μg/mL
Method: This was done as described[36] using colorectal carcinoma HCT116 and Vero epithelial cells cultured at 37 °C in 5% CO2 in Dulbecco’s modified Eagle’s medium (DMEM) with 4.5 g/L glucose and L-glutamine. The medium was supplemented with 10% v/v FetalGro (Rocky Mountain Biologicals). Approximately 25,000/well were aliquoted into black 96-well plates (Greiner Bio-One) and incubated overnight, before being resuspended in DMEM supplemented with 20% Gibco KnockOut Serum Replacement (Thermo Fisher Scientific). Compounds (100–1.6 μg/mL) were then added to the cells and incubated for 24 h at 37 °C and 5% CO2. Cell viability was analyzed using resazurin as described.[36]

Question: For `CN[C@@H]1C[C@H]2O[C@@](C)([C@@H]1OC)n1c3ccccc3c3c4c(c5c6ccccc6n2c5c31)C(=O)NC4` [staurosporine, reference compound], which IC50 at 24 h is on record?
Answer: 32.6 ± 14.2 µg/mL (≈ 69.9 µM)
